Results taken from the supplement of paper PMC12819154, “High-throughput peptide-centric local stability assay extends protein–ligand identification to membrane proteins, tissues and bacteria” (Nature Structural & Molecular Biology, 2025).
This is one part of the list. Small differences around the control level are noise.

Protein sequences, listed by entry. Tags and fused reporters are not part of them. Lines headed by an entry give the natural chain unless they say otherwise; changes in a name come on top.
UniProt Q86UQ0: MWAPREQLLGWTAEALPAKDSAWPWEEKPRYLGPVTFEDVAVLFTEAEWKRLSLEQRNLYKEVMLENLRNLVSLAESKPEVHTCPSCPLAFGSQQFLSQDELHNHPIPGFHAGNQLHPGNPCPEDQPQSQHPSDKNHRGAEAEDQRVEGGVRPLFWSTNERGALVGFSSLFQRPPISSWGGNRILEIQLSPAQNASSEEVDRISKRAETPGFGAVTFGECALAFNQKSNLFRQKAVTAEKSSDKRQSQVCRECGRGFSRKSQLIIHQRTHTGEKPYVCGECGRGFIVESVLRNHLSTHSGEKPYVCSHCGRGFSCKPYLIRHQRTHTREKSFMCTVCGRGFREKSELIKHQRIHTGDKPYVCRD
UniProt Q6ZSJ8: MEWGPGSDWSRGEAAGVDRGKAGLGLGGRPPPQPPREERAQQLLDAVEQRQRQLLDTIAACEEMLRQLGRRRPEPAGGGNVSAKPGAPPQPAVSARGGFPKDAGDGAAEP
UniProt Q7Z3I7: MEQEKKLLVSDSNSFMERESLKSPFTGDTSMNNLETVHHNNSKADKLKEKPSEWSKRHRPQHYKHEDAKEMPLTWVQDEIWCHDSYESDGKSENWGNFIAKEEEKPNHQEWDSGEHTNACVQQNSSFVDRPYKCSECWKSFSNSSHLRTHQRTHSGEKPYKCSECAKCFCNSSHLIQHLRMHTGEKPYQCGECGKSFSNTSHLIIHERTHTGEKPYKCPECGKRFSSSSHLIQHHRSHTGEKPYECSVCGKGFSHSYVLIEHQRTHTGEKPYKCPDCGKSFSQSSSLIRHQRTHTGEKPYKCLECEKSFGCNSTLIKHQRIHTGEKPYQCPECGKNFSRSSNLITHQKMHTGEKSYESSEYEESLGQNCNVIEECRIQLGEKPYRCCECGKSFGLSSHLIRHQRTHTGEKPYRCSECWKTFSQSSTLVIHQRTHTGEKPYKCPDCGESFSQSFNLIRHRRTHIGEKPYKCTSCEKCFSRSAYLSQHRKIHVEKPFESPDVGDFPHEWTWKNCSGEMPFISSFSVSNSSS
UniProt Q7RTN6: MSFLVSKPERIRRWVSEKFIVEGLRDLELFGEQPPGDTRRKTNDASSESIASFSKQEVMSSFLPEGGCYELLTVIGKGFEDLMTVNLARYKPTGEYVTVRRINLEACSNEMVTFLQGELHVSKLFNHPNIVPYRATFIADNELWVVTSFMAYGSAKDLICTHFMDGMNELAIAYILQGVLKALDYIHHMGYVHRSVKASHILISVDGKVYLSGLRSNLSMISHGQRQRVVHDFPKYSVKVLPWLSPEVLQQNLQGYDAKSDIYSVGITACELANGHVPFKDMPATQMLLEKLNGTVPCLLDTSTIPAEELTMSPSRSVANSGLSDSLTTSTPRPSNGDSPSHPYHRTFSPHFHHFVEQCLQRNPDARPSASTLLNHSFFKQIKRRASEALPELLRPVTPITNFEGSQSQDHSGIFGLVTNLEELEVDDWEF
UniProt Q86U44, whole entry: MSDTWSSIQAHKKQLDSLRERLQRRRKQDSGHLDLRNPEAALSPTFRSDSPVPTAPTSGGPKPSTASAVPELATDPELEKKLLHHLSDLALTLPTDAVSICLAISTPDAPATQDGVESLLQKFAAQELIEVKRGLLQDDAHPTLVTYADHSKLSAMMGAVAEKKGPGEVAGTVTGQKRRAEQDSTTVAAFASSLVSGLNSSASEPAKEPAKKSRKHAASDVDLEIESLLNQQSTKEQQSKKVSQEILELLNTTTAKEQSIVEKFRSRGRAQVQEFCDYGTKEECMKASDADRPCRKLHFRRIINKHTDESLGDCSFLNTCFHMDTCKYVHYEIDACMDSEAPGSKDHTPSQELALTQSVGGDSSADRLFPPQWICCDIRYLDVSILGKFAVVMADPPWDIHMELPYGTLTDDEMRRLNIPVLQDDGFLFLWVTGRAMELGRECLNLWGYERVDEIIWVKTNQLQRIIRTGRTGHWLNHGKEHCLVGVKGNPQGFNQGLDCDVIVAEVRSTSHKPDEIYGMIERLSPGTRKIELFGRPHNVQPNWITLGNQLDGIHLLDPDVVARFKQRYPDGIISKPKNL
UniProt Q7Z3V4: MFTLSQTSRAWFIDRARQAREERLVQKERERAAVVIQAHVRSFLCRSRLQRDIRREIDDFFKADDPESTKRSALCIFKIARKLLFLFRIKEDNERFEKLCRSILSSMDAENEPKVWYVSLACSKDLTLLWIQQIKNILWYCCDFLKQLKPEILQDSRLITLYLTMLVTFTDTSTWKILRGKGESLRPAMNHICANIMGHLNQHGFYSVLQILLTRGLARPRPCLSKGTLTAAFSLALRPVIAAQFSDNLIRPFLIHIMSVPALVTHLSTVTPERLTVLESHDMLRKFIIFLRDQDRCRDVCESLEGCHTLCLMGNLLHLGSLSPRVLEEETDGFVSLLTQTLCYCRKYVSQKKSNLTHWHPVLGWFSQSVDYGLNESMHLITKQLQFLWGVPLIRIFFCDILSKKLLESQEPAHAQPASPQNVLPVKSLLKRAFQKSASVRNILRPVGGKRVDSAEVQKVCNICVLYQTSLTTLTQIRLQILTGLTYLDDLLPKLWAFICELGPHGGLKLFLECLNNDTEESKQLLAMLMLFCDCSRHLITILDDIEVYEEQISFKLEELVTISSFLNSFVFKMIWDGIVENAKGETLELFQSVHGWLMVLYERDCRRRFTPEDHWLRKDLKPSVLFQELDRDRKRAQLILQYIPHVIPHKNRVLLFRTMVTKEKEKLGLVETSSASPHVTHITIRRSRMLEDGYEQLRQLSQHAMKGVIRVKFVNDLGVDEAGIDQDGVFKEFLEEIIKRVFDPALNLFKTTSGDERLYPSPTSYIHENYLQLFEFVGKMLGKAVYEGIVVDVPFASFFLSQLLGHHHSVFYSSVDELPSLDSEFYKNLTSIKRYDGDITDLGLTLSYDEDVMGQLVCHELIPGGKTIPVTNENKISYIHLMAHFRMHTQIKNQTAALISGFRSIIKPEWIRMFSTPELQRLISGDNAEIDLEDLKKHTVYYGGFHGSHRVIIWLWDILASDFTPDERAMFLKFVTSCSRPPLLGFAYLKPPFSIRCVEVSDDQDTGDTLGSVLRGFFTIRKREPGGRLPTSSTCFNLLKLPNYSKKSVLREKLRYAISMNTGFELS
UniProt Q7L8W6: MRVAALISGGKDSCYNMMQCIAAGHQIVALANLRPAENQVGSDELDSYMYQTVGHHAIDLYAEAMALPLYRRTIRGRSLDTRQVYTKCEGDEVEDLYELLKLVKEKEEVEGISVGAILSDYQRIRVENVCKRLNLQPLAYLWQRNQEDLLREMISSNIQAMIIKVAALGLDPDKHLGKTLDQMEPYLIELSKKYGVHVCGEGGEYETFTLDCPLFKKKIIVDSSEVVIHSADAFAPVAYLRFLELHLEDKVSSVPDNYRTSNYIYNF
UniProt Q6YN16: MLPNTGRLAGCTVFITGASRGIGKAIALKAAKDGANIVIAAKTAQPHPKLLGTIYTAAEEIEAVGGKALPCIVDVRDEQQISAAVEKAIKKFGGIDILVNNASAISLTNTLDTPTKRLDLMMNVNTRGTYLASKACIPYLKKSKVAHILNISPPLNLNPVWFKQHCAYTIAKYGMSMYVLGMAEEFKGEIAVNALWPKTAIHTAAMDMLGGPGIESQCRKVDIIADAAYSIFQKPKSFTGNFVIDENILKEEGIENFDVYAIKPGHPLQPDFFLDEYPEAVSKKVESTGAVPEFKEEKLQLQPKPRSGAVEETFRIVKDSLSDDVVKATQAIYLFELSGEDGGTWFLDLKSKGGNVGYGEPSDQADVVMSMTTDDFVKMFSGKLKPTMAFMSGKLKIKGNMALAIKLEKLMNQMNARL
UniProt Q712K3: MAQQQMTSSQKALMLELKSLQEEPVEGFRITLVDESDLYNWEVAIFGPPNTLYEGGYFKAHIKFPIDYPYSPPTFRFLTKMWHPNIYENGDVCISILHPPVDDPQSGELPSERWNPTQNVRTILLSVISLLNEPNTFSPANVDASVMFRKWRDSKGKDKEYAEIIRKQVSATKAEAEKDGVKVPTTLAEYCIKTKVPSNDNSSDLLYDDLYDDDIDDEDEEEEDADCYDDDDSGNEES
UniProt Q6ZRV2: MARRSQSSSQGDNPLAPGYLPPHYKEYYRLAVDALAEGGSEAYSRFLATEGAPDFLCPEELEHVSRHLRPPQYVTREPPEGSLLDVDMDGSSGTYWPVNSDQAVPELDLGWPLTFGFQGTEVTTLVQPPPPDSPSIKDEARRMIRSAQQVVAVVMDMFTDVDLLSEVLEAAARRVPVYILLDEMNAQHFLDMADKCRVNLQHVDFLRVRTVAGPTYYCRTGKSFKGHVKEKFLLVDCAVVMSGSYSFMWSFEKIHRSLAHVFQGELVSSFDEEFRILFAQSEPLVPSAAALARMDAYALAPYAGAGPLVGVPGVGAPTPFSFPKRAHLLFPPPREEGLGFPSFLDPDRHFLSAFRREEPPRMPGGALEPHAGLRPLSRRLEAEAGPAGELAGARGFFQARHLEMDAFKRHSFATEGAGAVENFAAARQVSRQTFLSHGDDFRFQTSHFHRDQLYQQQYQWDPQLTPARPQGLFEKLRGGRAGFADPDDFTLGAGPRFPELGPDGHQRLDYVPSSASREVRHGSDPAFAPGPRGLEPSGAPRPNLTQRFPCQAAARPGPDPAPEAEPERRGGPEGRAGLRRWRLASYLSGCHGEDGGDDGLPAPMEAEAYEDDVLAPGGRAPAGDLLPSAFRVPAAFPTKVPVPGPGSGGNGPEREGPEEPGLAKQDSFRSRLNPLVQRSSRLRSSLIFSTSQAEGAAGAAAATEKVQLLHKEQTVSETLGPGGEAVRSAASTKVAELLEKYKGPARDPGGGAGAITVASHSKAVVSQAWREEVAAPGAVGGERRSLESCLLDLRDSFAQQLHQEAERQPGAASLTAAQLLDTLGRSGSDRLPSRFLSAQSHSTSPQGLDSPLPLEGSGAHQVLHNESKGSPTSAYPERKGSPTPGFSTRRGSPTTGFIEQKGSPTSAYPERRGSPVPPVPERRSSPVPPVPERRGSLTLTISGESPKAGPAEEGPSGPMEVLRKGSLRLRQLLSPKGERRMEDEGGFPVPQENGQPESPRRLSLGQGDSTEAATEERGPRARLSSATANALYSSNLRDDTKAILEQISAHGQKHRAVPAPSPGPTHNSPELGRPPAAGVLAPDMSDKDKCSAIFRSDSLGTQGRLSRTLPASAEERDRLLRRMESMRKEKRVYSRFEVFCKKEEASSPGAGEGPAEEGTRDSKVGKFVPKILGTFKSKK
UniProt Q7L5Y6, whole entry: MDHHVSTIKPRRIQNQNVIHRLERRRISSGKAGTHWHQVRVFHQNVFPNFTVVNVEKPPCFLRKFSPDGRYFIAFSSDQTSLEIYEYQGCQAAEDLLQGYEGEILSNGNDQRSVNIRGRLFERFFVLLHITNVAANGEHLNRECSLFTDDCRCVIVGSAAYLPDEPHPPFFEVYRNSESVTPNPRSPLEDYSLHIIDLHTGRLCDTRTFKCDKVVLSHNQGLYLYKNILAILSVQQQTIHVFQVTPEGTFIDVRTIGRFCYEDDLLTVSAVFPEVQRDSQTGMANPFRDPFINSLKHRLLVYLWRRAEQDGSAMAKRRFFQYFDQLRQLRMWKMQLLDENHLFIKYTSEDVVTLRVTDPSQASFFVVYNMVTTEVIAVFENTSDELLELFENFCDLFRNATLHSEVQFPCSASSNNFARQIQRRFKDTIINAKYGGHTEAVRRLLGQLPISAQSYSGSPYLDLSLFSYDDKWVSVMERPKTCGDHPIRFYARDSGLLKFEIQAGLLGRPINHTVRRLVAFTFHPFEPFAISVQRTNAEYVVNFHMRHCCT
UniProt Q7Z5L2: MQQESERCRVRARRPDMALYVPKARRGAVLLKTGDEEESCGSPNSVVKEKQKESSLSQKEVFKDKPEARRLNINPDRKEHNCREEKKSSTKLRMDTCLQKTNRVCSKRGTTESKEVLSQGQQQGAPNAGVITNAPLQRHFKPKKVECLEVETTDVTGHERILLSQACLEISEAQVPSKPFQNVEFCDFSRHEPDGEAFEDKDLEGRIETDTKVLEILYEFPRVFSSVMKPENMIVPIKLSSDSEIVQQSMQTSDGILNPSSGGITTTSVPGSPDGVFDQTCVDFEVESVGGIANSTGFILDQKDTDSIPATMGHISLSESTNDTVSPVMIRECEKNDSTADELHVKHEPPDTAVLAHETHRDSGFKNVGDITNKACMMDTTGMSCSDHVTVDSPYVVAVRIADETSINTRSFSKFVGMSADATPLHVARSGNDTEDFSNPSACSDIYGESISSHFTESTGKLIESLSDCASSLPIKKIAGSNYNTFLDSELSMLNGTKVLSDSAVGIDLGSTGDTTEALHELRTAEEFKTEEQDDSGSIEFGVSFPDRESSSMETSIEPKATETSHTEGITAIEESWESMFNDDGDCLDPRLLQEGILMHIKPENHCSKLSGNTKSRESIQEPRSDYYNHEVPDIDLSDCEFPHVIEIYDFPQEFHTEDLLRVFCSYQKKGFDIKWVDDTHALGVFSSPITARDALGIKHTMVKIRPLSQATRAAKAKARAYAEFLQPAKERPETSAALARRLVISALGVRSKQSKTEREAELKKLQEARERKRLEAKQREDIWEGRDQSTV

Each target was assayed with Cc1nc(Nc2ncc(C(=O)Nc3c(C)cccc3Cl)s2)cc(N2CCN(CCO)CC2)n1 [dasatinib] (assay: log2 fold change of tryptic peptide abundance, ligand vs vehicle (limited proteolysis) (log2 ratio); higher = more trypsin-susceptible (destabilized)). Details: ligand concentration: 5 uM; sample: K562 cleared lysate.
“PACS1 (peptide sequence: GGAGGGPGGAGGGSGQR, peptide start residue: 5) (UniProt Q6VY07)” was tested, and the log2 fold change was -0.152.
“MRPL55 (peptide sequence: MLAMPIDLDTLSPEERR, peptide start residue: 74) (UniProt Q7Z7F7)” was tested, and the log2 fold change was 0.22.
In the case of “UniProt Q86UQ0 (peptide sequence: VEGGVRPLFWSTNER, peptide start residue: 147)”, the log2 fold change is reported as 0.25.
For “C1orf122 (peptide sequence: RRPEPAGGGNVSAK, peptide start residue: 71) (UniProt Q6ZSJ8)”, the log2 fold change was -0.0805.
Work on “UniProt Q86UD0 (peptide sequence: ASADFGAAGSPRPLGR, peptide start residue: 275)” yielded a log2 fold change of -0.231.
For “UniProt Q7Z3I7 (peptide sequence: RTHIGEKPYK, peptide start residue: 460)”, the log2 fold change was 0.173.
“GPRIN1 (peptide sequence: KVDPVSSDKVDPVFPR, peptide start residue: 240) (UniProt Q7Z2K8)” showed a log2 fold change of 0.17.
“STRADA (peptide sequence: SFLVSKPER, peptide start residue: 2) (UniProt Q7RTN6)” was tested, and the log2 fold change was -0.242.
“UniProt Q7L592 (peptide sequence: LSEIQALTLTK, peptide start residue: 161)” showed a log2 fold change of -0.243.
Work on “PATL1 (peptide sequence: AVPIGTPPK, peptide start residue: 189) (UniProt Q86TB9)” yielded a log2 fold change of 0.174.
“UniProt Q86TP1 (peptide sequence: RSELPLRGDIVFFLQK, peptide start residue: 60)” gave a log2 fold change of 0.709.
For “METTL3 (peptide sequence: FAAQELIEVKR, peptide start residue: 123) (UniProt Q86U44)”, the log2 fold change was -0.196.
Target “UniProt Q76M96 (peptide sequence: KHEKLEK, peptide start residue: 539)” has a log2 fold change of 0.00488.
For “UBE3B (peptide sequence: NILRPVGGK, peptide start residue: 442) (UniProt Q7Z3V4)”, the log2 fold change was 0.165.
Work on “ISCA2 (peptide sequence: LTDSCVQR, peptide start residue: 52) (UniProt Q86U28)” yielded a log2 fold change of 0.337.
Target “UniProt Q6ZMY9 (peptide sequence: VLQEDLGRPVGSSAPR, peptide start residue: 162)” has a log2 fold change of 0.277.
Target “TAOK1 (peptide sequence: EIEAFDSESMR, peptide start residue: 874) (UniProt Q7L7X3)” has a log2 fold change of 0.156.
“UniProt Q7L8W6 (peptide sequence: NQEDLLR, peptide start residue: 145)” was tested, and the log2 fold change was -0.136.
Work on “UniProt Q86TJ5 (peptide sequence: THTGEKPYECSECGK, peptide start residue: 480)” yielded a log2 fold change of -0.0298.
“ZBTB33 (peptide sequence: KYPCRYCEK, peptide start residue: 521) (UniProt Q86T24)” gave a log2 fold change of 0.197.
“MPRIP (peptide sequence: MEVDRSPGLPMSDLK, peptide start residue: 614) (UniProt Q6WCQ1)” was tested, and the log2 fold change was -0.254.
In the case of “HSDL2 (peptide sequence: ALPCIVDVR, peptide start residue: 68) (UniProt Q6YN16)”, the log2 fold change is reported as -0.079.
For “UniProt Q86UE6 (peptide sequence: LQALAPDLFHGLR, peptide start residue: 149)”, the log2 fold change was 0.193.
“UniProt Q86TB3 (peptide sequence: RESEAGQK, peptide start residue: 2053)” gave a log2 fold change of 0.231.
In the case of “UniProt Q7Z7L9 (peptide sequence: GGPQEEVTR, peptide start residue: 63)”, the log2 fold change is reported as 0.115.
Target “UniProt Q86UT8 (peptide sequence: TSAGWLPSFGR, peptide start residue: 292)” has a log2 fold change of -0.161.
Target “ZNF598 (peptide sequence: REEEDREVAAAVR, peptide start residue: 338) (UniProt Q86UK7)” has a log2 fold change of -0.997.
Work on “UniProt Q712K3 (peptide sequence: SLQEEPVEGFR, peptide start residue: 19)” yielded a log2 fold change of -0.23.
In the case of “YRDC (peptide sequence: LLRLPGSGAVQAASPER, peptide start residue: 47) (UniProt Q86U90)”, the log2 fold change is reported as -0.0703.
In the case of “DOK3 (peptide sequence: EMPPGPEPPTSR, peptide start residue: 342) (UniProt Q7L591)”, the log2 fold change is reported as 0.365.
“FAM83H (peptide sequence: DSFAQQLHQEAER, peptide start residue: 795) (UniProt Q6ZRV2)” showed a log2 fold change of 0.453.
With “MIER3 (peptide sequence: DNEQALYELLK, peptide start residue: 246) (UniProt Q7Z3K6)” the log2 fold change was 0.159.
Target “DET1 (peptide sequence: FEIQAGLLGRPINHTVR, peptide start residue: 499) (UniProt Q7L5Y6)” has a log2 fold change of -0.605.
“SETX (peptide sequence: LCTCTEPIR, peptide start residue: 1226) (UniProt Q7Z333)” showed a log2 fold change of -0.501.
“TSEN54 (peptide sequence: EHHAEAAQFQEDVNADPEVQR, peptide start residue: 354) (UniProt Q7Z6J9)” showed a log2 fold change of 0.173.
Work on “UniProt Q7L9L4 (peptide sequence: ELAPLQELIEK, peptide start residue: 200)” yielded a log2 fold change of -0.132.
“PEX26 (peptide sequence: RLDVLQAIHTAR, peptide start residue: 192) (UniProt Q7Z412)” showed a log2 fold change of -0.0189.
For “UniProt Q7Z5L2 (peptide sequence: FVGMSADATPLHVAR, peptide start residue: 415)”, the log2 fold change was 0.169.
